Earlier results as cited in publication PMC8618442, “Solubility of Cinnarizine in (Transcutol + Water) Mixtures: Determination, Hansen Solubility Parameters, Correlation, and Thermodynamics” (Molecules, 2021).

Conditions: cited from earlier work

C(=C\c1ccccc1)/CN1CCN(C(c2ccccc2)c2ccccc2)CC1 [CNZ, 1-benzhydryl-4-[(E)-3-phenylprop-2-enyl]piperazine]
partition coefficient (log P): 5.8
